Data as given in publication PMC3404119.
No constants are given. Whether binding was seen depends on the method and setting. For some of these results: In cells and extracts the contact can be indirect. Some entries that bind do so weakly or less than the wild type.

Sequences of proteins named here, by UniProt entry; tags and fusion partners are left off.
UniProt Q90477: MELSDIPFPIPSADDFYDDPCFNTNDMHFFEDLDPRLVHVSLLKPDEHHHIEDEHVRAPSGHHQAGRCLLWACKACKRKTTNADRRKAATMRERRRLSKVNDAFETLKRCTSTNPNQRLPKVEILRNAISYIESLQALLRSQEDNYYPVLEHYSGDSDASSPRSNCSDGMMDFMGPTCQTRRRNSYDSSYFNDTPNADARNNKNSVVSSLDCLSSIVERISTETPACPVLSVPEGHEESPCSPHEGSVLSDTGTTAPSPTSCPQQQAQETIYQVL

How the values were obtained:
[1] = target: T1, Hes6 (zebrafish) (UniProt Q6P0J1); assay: MITOMI (mechanically induced trapping of molecular interactions); GFP-tagged Her protein from wheat germ extract immobilised on the microfluidic chip surface with anti-GFP antibody and washed with PBS; mCherry-tagged protein expressed on chip in wheat germ extract with 250 nM Cy5-labelled DNA oligomer; 3 h at room temperature; slope of free against bound mCherry signal as relative affinity
T1 sequence: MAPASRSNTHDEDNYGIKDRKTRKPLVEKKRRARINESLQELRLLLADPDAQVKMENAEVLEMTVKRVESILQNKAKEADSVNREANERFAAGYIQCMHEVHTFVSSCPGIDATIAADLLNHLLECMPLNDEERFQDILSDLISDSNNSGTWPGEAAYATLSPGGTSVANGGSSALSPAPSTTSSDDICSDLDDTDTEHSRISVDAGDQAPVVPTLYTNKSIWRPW

[2] = target: T1, Hes6 (zebrafish); assay: co-IP; GFP-tagged Her1, Her7 or Hes6 co-expressed with mCherry-tagged proteins in an in vitro transcription-translation system; immunoprecipitation with a GFP antibody, immunoblot for mCherry

For “MyoD (myogenic differentiation 1) (from UniProt Q90477 1-275)”, the binding [1] was “binds” and the binding [2] was “binds”.

B1: Hes6 (protein, UniProt Q6P0J1 1-226)
chain: MAPASRSNTHDEDNYGIKDRKTRKPLVEKKRRARINESLQELRLLLADPDAQVKMENAEVLEMTVKRVESILQNKAKEADSVNREANERFAAGYIQCMHEVHTFVSSCPGIDATIAADLLNHLLECMPLNDEERFQDILSDLISDSNNSGTWPGEAAYATLSPGGTSVANGGSSALSPAPSTTSSDDICSDLDDTDTEHSRISVDAGDQAPVVPTLYTNKSIWRPW
With B1 the binding [1] was “binds” and the binding [2] was “binds”.
